Data as given in PubChem BioAssay AID504786 (Drosophila RNAi Screening Center, 2011).
Test: 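Fly genes required for HIF-dependent transcription when hypoxia is mimicked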 (primary screen). Cells: Drosophila S2 cells with a stable HIF luciferase reporter. Knock-down reagent: long dsRNA against Drosophila genes, about 0.2 µg dsRNA per well of a 384-well plate. Time to read-out: three days of knock-down, then 20 h of DFO before reading. Treatment: desferrioxamine (DFO) at 100 µM, an iron chelator that mimics hypoxia, for 20 h. Read-out: 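HIF reporter luminescence in cells given 100 µM DFO for 20 h, using the mouse ldh-a hypoxia-response element, scored as per-plate z-scores; higher means greater loss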. Direction: z-score: higher = stronger loss of HIF reporter signal.
In all, the deposit lists about 21,000 reagents; shown is an unselected part of those with a known target gene and a result. 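Primary screen; positive scores mean lost reporter signal, so the sign may be inverted from the usual convention.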 Reagents against one gene are numbered here. A plus sign joins genes that one reagent is predicted to hit. Reagent sequences are not shown.

Which result is listed for CG34178 + CG34177?
z-score, replicate 1: -0.1; z-score, replicate 2: -0.1

With fat-spondin, how do the results read?
z-score, replicate 1: -0.2; z-score, replicate 2: 0

With CG5828, how do the results read?
z-score, replicate 1: -0.2; z-score, replicate 2: -0.2

With CG34198, what was measured?
z-score, replicate 1: -0.8; z-score, replicate 2: 0

What is on record for Or43b?
z-score, replicate 1: -0.3; z-score, replicate 2: -0.3

2 entries from above, sorted by “z-score, replicate 1”, lowest first:
CG34198 | z-score, replicate 1: -0.8; z-score, replicate 2: 0
CG5828 | z-score, replicate 1: -0.2; z-score, replicate 2: -0.2

The listing continues:
Which result is listed for CG4537?
z-score, replicate 1: -0.3; z-score, replicate 2: -0.7

What is on record for CG3769?
z-score, replicate 1: -0.3; z-score, replicate 2: -0.3

With Obp56a, what does the deposit list?
z-score, replicate 1: -0.3; z-score, replicate 2: -0.3

How did the screen score sc?
z-score, replicate 1: -0.4; z-score, replicate 2: -0.5

Which result is listed for CG11927?
z-score, replicate 1: -0.4; z-score, replicate 2: 0

For CG6414, what was measured?
z-score, replicate 1: -0.2; z-score, replicate 2: -0.3

Which result is listed for koi?
z-score, replicate 1: -0.3; z-score, replicate 2: -0.3

What did the screen give for Fa2h #1?
z-score, replicate 1: -0.2; z-score, replicate 2: -0.5

How did the screen score Fa2h #2?
z-score, replicate 1: -0.3; z-score, replicate 2: -0.5

Which result is listed for CG10621?
z-score, replicate 1: -0.3; z-score, replicate 2: -0.1

With CG11112, what does the deposit list?
z-score, replicate 1: -0.2; z-score, replicate 2: -0.3
